Results taken from patent publication US6787670B1, “Glyoxyl acid amides, method for producing them and their use for controlling harmful organisms” (priority 1999, dated 2004).
Some results were stated once for a whole list of compounds, not compound by compound.

Test system: Alternaria solani
Assay: Alternaria test (tomato)/protective
Type: in vivo
Conditions: tomato plants, protective spray, application rate 750 g/ha, evaluation 3 days after inoculation; 100% = no infection

Structure (SMILES)	efficacy in %
CO/N=C(\C(=O)NCCc1ccc(OCC(C)C)c(OC)c1)c1ccc2c(c1)CCCC2 [Example 45]	≥ 90%
CO/N=C(\C(=O)NCCc1ccc(OCC(C)C)c(OC)c1)c1ccc2c(c1)CCCC2 [Example 46]	≥ 90%
CCCCOc1ccc(CCNC(=O)/C(=N\OC)c2ccc3c(c2)CCCC3)cc1OC [Example 48]	≥ 90%
CCCCOc1ccc(CCNC(=O)/C(=N\OC)c2ccc3c(c2)CCCC3)cc1OC [Example 49]	≥ 90%
